PubChem BioAssay AID1259308 – NCATS – 2017
Assay: 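Candidate targets for better recombinant protein yield in mammalian cells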 (primary screen). Cells: human HEK293 embryonic kidney cells stably expressing firefly luciferase (HEK-CMV-Luc2-Hygro). Reagents: single siRNA against human genes, 0.8 pmol siRNA per well. Time to read-out: 72 h. Read-out: 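Luciferase light (ONE-Glo) measured on one replicate plate set and viability (CellTiter-Glo) on the other, scaled to a negative control siRNA, with robust z-scores and luciferase per cell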. Direction: total luciferase, z-score and total luciferase, % of control: higher = more reporter protein produced. Hit rule: 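An siRNA counts as active if its total luciferase robust z-score exceeds 3; genes with two or more such siRNAs out of three were retested with fresh siRNAs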. Meaning of the calls: active = raised luciferase; inactive = no rise.
In all, the deposit lists about 59,000 reagents; shown is a part drawn at random. In the full data, about 1,510 (2.6%) are marked active. 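Calls use total luciferase alone and ignore viability, so some active siRNAs may act by altering cell number.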 The numbers tell different reagents against one gene apart. Not all columns of the deposit are shown.

Target gene	reagent no.	total luciferase, z-score	total luciferase, % of control	Outcome
BLK (BLK proto-oncogene, Src family tyrosine kinase)	1	0.0832	83.5	inactive
BLK (BLK proto-oncogene, Src family tyrosine kinase)	2	0.056	83	inactive
BLK (BLK proto-oncogene, Src family tyrosine kinase)	3	0.267	87.2	inactive
RPL27AP2 (ribosomal protein L27a pseudogene 2)	1	0.275	87.3	inactive
RPL27AP2 (ribosomal protein L27a pseudogene 2)	2	-0.244	77	inactive
RPL27AP2 (ribosomal protein L27a pseudogene 2)	3	0.537	92.6	inactive
HMCN2 (hemicentin 2)	1	-1.33	55.4	inactive
HMCN2 (hemicentin 2)	2	-1.52	51.7	inactive
HMCN2 (hemicentin 2)	3	-1.51	51.8	inactive
HMCN2 (hemicentin 2)	4	1.34	109	inactive
HMCN2 (hemicentin 2)	5	-0.0947	80	inactive
HMCN2 (hemicentin 2)	6	0.394	89.7	inactive
HMCN2 (hemicentin 2)	7	1.67	115	inactive
HMCN2 (hemicentin 2)	8	-0.517	71.6	inactive
HMCN2 (hemicentin 2)	9	3.11	144	active
GPR151 (G protein-coupled receptor 151)	1	1.83	118	inactive
GPR151 (G protein-coupled receptor 151)	2	0.0927	83.7	inactive
GPR151 (G protein-coupled receptor 151)	3	0.11	84.1	inactive
H4C14 (H4 clustered histone 14)	1	4.78	177	active
H4C14 (H4 clustered histone 14)	2	-1.21	57.9	inactive
H4C14 (H4 clustered histone 14)	3	0.139	84.6	inactive
SCN4B (sodium voltage-gated channel beta subunit 4)	1	0.79	97.6	inactive
SCN4B (sodium voltage-gated channel beta subunit 4)	2	0.867	99.1	inactive
SCN4B (sodium voltage-gated channel beta subunit 4)	3	0.18	85.5	inactive
OR10R2 (olfactory receptor family 10 subfamily R member 2)	1	1.84	118	inactive
OR10R2 (olfactory receptor family 10 subfamily R member 2)	2	-0.101	79.9	inactive
OR10R2 (olfactory receptor family 10 subfamily R member 2)	3	-0.364	74.7	inactive
CELSR3 (cadherin EGF LAG seven-pass G-type receptor 3)	1	-0.0454	81	inactive
CELSR3 (cadherin EGF LAG seven-pass G-type receptor 3)	2	2.47	131	inactive
CELSR3 (cadherin EGF LAG seven-pass G-type receptor 3)	3	1.93	120	inactive
DYDC2 (DPY30 domain containing 2)	1	-0.0314	81.3	inactive
DYDC2 (DPY30 domain containing 2)	2	-0.643	69.1	inactive
DYDC2 (DPY30 domain containing 2)	3	-0.422	73.5	inactive
RPL21P7 (ribosomal protein L21 pseudogene 7)	1	-2.68	28.5	inactive
RPL21P7 (ribosomal protein L21 pseudogene 7)	2	-0.724	67.5	inactive
RPL21P7 (ribosomal protein L21 pseudogene 7)	3	0.327	88.4	inactive
MIOS (meiosis regulator for oocyte development)	1	-0.758	66.8	inactive
MIOS (meiosis regulator for oocyte development)	2	0.286	87.6	inactive
MIOS (meiosis regulator for oocyte development)	3	0.368	89.2	inactive
EPG5 (ectopic P-granules 5 autophagy tethering factor)	1	0.398	89.8	inactive
EPG5 (ectopic P-granules 5 autophagy tethering factor)	2	0.042	82.7	inactive
EPG5 (ectopic P-granules 5 autophagy tethering factor)	3	1.29	108	inactive
ADCY6 (adenylate cyclase 6)	1	0.0591	83.1	inactive
ADCY6 (adenylate cyclase 6)	2	2.51	132	inactive
ADCY6 (adenylate cyclase 6)	3	2.07	123	inactive
ABCA4 (ATP binding cassette subfamily A member 4)	1	-0.244	77	inactive
ABCA4 (ATP binding cassette subfamily A member 4)	2	2.2	126	inactive
ABCA4 (ATP binding cassette subfamily A member 4)	3	1.25	107	inactive
ACSM4 (acyl-CoA synthetase medium chain family member 4)	1	1.88	119	inactive
ACSM4 (acyl-CoA synthetase medium chain family member 4)	2	-0.565	70.7	inactive
ACSM4 (acyl-CoA synthetase medium chain family member 4)	3	-0.751	66.9	inactive
RXRB (retinoid X receptor beta)	1	0.0591	83.1	inactive
RXRB (retinoid X receptor beta)	2	-0.0106	81.7	inactive
RXRB (retinoid X receptor beta)	3	-0.658	68.8	inactive
TSSK4 (testis specific serine kinase 4)	1	-0.566	70.6	inactive
TSSK4 (testis specific serine kinase 4)	2	0.0702	83.3	inactive
TSSK4 (testis specific serine kinase 4)	3	-0.647	69	inactive

Entries listed so far called active (2):
Target gene	reagent no.	total luciferase, z-score	total luciferase, % of control	Outcome
HMCN2 (hemicentin 2)	9	3.11	144	active
H4C14 (H4 clustered histone 14)	1	4.78	177	active
